Experiments:
animal model of melanoma = experiment: In vivo assessment of the pH on animal model of melanoma (CEST MRI, ratiometric method); design: species or system mice; settings: i.v. 1.2 mmol/Kg
Mesenchimal stam cells = experiment: Use of Yb(III)HPDO3A to assess the intracellular pH (CEST MRI of cell pellets); format: cell-based, murine

SMILES: CC(O)CN1CCN(CC(=O)[O-])CCN(CC(=O)[O-])CCN(CC(=O)[O-])CC1.[Yb+3] (stereo not shown) [YbHPDO3A]
- physiological T from shift of the exchanging pool in the Z-spectrum of the bladder (animal model of melanoma; anaesthetised mice): 33 °C
- pH in the bladder (animal model of melanoma; mice, ratiometric method): 6.06±0.2
- pH in the kidneys medulla (animal model of melanoma; mice, ratiometric method): 6.24±0.2
- pH in the tumor region (animal model of melanoma; mice, subcutaneous B16 melanoma, ratiometric method): 6.6±0.2
- measured intracellular pH, cells electroporated with the complex (Mesenchimal stam cells; MSH cells electroporated with 0.15M solution in PBS pH 7.4, irradiation at 72 and 99 ppm): 7.00±0.2
- measured intracellular pH, cells incubated with the complex (Mesenchimal stam cells; MSH cells incubated 3 hours with 0.15M solution in PBS, 37°, pH 7.4 (capillary 2)): 6.8±0.3
- ST % effect in cell pellets (in words) (Mesenchimal stam cells; irradiation at 72 and 99 ppm, versus cells incubated only with PBS): could be seen only for those cells incubated or electroporated with YbHPDO3A

From patent US10232060B2, “CEST systems exhibiting a concentration independent responsiveness” (BRACCO IMAGING S.P.A., priority 2010, dated 2019)
